Results are given in words; binding and its absence hold for the method and conditions named. Binding seen in cells or lysates may run through a third protein. Some binding calls cover weakened binding; strength is not graded here.
Target: heat shock protein 90α (human (endogenous in H1299)) (UniProt P07900)
Assay: co-IP; Hsp90α precipitated with its antibody and protein A Sepharose beads from lysates of H1299-WT, AMPKα1 KD and AMPKα1 OV cells treated with or without metformin; at least 12 h at 4 °C; lysis buffer 150 mM NaCl, 20 mM Tris, 0.5% NP40, phosphatase and protease inhibitors; PKCγ detected by western blot

- binding: binds
Substance: protein kinase Cγ (from UniProt P05129 1-697) (enzyme)

Reference: paper PMC7016760
